In all, about 220,000 compounds went through this assay and about 770 (0.35%) were called active. Inconclusive means that the source gave no clear call. Such entries were picked first, then a sample of the others. Cut-off read from the data, not from the text of the source: active = binding response below about 49% or above about 150%; inconclusive = no clear call, values can overlap the other calls; inactive = in between.
The molecules below were run against Guanine nucleotide-binding protein G(o) subunit alpha (Homo sapiens) (UniProt P09471) (assay: RGS7-Galphao binding modulators, primary screen, biochemical, multiplexed bead flow cytometry (AID 1439;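 note: fluorescent Galphao held in activated GDP-AlF4 state binding bead-coupled RGS7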)). Conditions: at 10 µM, actives lie on both sides.

Chains of the proteins cited; added tags and fusions are not shown.
UniProt P09471, whole entry, looked up: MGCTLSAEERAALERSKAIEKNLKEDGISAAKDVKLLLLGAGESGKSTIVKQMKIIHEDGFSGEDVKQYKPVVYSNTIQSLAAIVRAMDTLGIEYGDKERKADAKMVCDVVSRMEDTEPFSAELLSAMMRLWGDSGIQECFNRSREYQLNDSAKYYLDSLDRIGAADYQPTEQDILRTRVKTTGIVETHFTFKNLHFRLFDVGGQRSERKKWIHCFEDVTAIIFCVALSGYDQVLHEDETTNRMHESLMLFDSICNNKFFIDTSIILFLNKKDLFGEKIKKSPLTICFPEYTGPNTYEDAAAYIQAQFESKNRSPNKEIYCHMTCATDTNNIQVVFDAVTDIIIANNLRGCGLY

Row | SMILES | binding response (% of control)
1 | CC(=O)OC(c1nc2ccccc2c(=O)n1C1CC2(OC1=O)c1ccccc1N1C(=O)C(C)(C)N(O)C12)C(C)C (stereo not drawn) | inconclusive: 109%
2 | CCOc1ccc(C(=O)Nc2cccc(C(=O)O)c2)cc1Cl | inconclusive: 116%
3 | CCC(OC(=O)c1nsc(Cl)c1Cl)C(=O)NC(C)(C)CC (stereo not drawn) | inconclusive: 107%
4 | Cc1c[nH]c(=O)c([N+](=O)[O-])c1 | inconclusive: 147%
5 | O=C(O)/C=C/C(=O)Nc1ccc(-n2nccc2C(F)(F)F)cc1 | inconclusive: 112%
6 | O=C(O)c1cncc(C#CCC2CCCCC2)c1 | inconclusive: -22.6%
7 | CCCOC(=O)Nc1sc2c(c1C(N)=O)CCCC2 | inactive: 95%
8 | CCOc1cccc(C(=O)NNC(=O)CCC(=O)O)c1 | inactive: 100%
9 | COc1ccc(NC(=O)c2c(NC(=O)CNCC(C)C)sc3c2CCC3)c(OC)c1 | inconclusive: 95.1%
10 | CCOc1cccc(/C=C/c2cc(C(=O)O)c3ccccc3n2)c1OC | inconclusive: 396%
11 | CCCN(CCC)S(=O)(=O)c1ccc(C(=O)N2CC3CCC(CC3)C2)cc1 | inconclusive: 93.5%
12 | Cc1ccc(-n2c(=O)c3cc4c(=O)n(-c5ccc(C)c(C)c5)c(=O)c4c(C(=O)c4ccc(C(=O)O)cc4)c3c2=O)cc1C | inconclusive: 99.8%
13 | CC(C)S(=O)(=O)c1cnc(-c2cccnc2)nc1N | inconclusive: 81.3%
14 | N#CCn1cc(/C=N/NC(=O)c2cc3c(ccc4ccccc43)o2)c2ccccc21 | inconclusive: 121%
15 | CCOc1ccccc1N(C(C)=O)S(=O)(=O)c1ccc(Cl)cc1 | inconclusive: 101%
16 | COc1ccc([C@@H]2C[C@@H](c3ccccc3)Oc3cc(OC)c(OC)c(OC)c32)cc1 | inconclusive: 92.3%
17 | N#C/C(=C\c1coc2ccc(O)cc2c1=O)C(=O)Nc1nc2ccccc2s1 | inconclusive: 105%
18 | C/C(N)=C(/C#N)C(=O)CSc1nc2ccccc2[nH]1 | inactive: 100%
19 | O=C(NC1CCS(=O)(=O)C1)c1ccc(-c2ccc(Br)cc2)o1 (stereo not drawn) | inactive: 99.3%
20 | O=C(CCN1CCN(c2ccccc2)CC1)NNC(=S)Nc1ccccc1Cl | inconclusive: 102%

Row | SMILES | binding response (% of control)
21 | CCc1n[nH]c(=S)n1/N=C/c1ccc(NC(C)=O)cc1 | inconclusive: 111%
22 | O=C(Nc1nc2n(n1)C(c1ccc(F)cc1)CC(c1ccccc1)N2)c1ccco1 (stereo not drawn) | inconclusive: 102%
23 | Fc1c(F)c(F)c(N/N=C/c2c[nH]c3ccccc23)c(F)c1F | inactive: 96.5%
24 | COC(=O)C1=C(O)C2(C(=O)O)CC(C(=O)OC)=C(O)C(C(=O)O)(C1)C2 | inconclusive: 93%
25 | O=C(c1c[nH]c(C(=O)C(Cl)(Cl)Cl)c1)c1ccccc1Br | inactive: 100%
26 | COc1ccc([N+](=O)[O-])cc1N(CC(=O)NCc1ccco1)S(C)(=O)=O | inconclusive: 117%
27 | COCc1cc(=O)[nH]c(/N=C(\N)Nc2c(F)cccc2F)n1 | inconclusive: 94.3%
28 | CCOc1ccc(NC(=O)CCC(=O)NNC(=O)Nc2ccc(Cl)cc2)cc1 | inactive: 108%
29 | COC(=O)C1=NN(N=O)C2(CC(=O)N(c3cc(C)cc(C)c3)C2=O)C1 (stereo not drawn) | inactive: 84.8%
30 | COC(=O)c1cc(C(=O)c2ccc(Cl)cc2)n2c(=O)/c(=C\N(C)C)sc12 | inconclusive: 101%
31 | Cc1ccc(C)c(NC(=S)N/N=C2\CCc3ccccc32)c1 | inconclusive: -282%
32 | CCN(CC(=O)NCc1cccs1)S(=O)(=O)c1ccc(NC(C)=O)cc1 | inconclusive: 86.2%
33 | CC1(C)Cc2nc(Cl)c(C(N)=O)cc2CO1 | inconclusive: 107%
34 | Cn1c(C(=O)N2CCN(c3ccc([N+](=O)[O-])cc3)CC2)cc2c(=O)[nH]c3ccccc3c21 | inconclusive: 114%
35 | CCOc1ccc2nc(N3C(=O)CNC3=S)sc2c1 | inconclusive: 74.6%
36 | O=C(/C=C/c1cn(-c2ccccc2)nc1-c1ccc2c(c1)OCCO2)NCCO | inconclusive: 108%
37 | CC1CCN(S(=O)(=O)c2cccc(C(=O)NCc3ccco3)c2)CC1 | inactive: 99.2%
38 | C=CCn1c(C)nnc1SCC(=O)N1CCN(S(=O)(=O)c2ccccc2)CC1 | inconclusive: 88.4%
39 | O=C(NCc1ccc(Cl)cc1)C(=O)NCC1OCCN1C(=O)c1cccs1 (stereo not drawn) | inactive: 96.1%
40 | COc1ccc(NC(=O)c2nc[nH]c2C(=O)N[C@@H](C)c2ccccc2)cc1 | inconclusive: 91.6%

Some of these compounds in order of SMILES length, smallest number first:
Row | SMILES | binding response (% of control)
33 | CC1(C)Cc2nc(Cl)c(C(N)=O)cc2CO1 | inconclusive: 107%
27 | COCc1cc(=O)[nH]c(/N=C(\N)Nc2c(F)cccc2F)n1 | inconclusive: 94.3%
38 | C=CCn1c(C)nnc1SCC(=O)N1CCN(S(=O)(=O)c2ccccc2)CC1 | inconclusive: 88.4%
26 | COc1ccc([N+](=O)[O-])cc1N(CC(=O)NCc1ccco1)S(C)(=O)=O | inconclusive: 117%
30 | COC(=O)c1cc(C(=O)c2ccc(Cl)cc2)n2c(=O)/c(=C\N(C)C)sc12 | inconclusive: 101%

(more compounds)

Row | SMILES | binding response (% of control)
41 | O=C(CN1CCN(Cc2ccccc2F)C1=O)NCCN1CCOCC1 | inactive: 97.7%
42 | Cc1ccc(NC(=S)N(C)N)cc1Cl | inconclusive: 104%
43 | N#CC(c1ccccn1)c1ncc(C(F)(F)F)cc1Cl (stereo not drawn) | inconclusive: 93.2%
44 | Cc1ccc(NC(=O)Nc2cnccn2)cc1Cl | inactive: 105%
45 | Cc1c(C(=O)OC(C)C)[nH]c2c1C(=O)CC(C)(C)C2 | inactive: 100%
46 | Cc1cccc(C)c1NC(=O)CNC(=O)CCC(=O)c1cccs1 | inactive: 104%
47 | CSCCC(NC(=O)COc1cccc2ccccc12)C(=O)O (stereo not drawn) | inconclusive: 200%
48 | CC12CS(=O)(=O)CC1SC(=S)N2Cc1ccccc1 (stereo not drawn) | inactive: 102%
49 | COC(=O)c1cccc(Oc2cccc(Cl)n2)c1 | inconclusive: 99.3%
50 | CC(C)(C)NC(=O)NCc1cccnc1 | inconclusive: 87.5%
51 | Cc1ccc(Nc2nc(N)nc(CCl)n2)c(C)c1 | inconclusive: 96.8%
52 | COCCNC(=O)c1cc2nc3c(c(C(F)(F)F)n2n1)CCc1ccccc1-3 | inactive: 102%
53 | O=C(Oc1ccc2cc(Br)ccc2c1)c1cccnc1 | inactive: 115%
54 | CCCc1nc2oc3c(NCCCN(C)C)ncnc3c2c2c1CCCC2 | inconclusive: 104%
55 | CC[N+]1(CC)CC2=Cc3c(ccc4ccccc34)C(C)C2C1 (stereo not drawn) | inconclusive: 674%
56 | O=C(Nc1ccc(F)cc1F)c1c(C(F)(F)F)ccnc1Oc1cccc(C(F)(F)F)c1 | inconclusive: 42.4%
57 | O=C(CN1CCN(C(=O)C2COc3ccccc3O2)CC1)Nc1ccc(F)cc1 (stereo not drawn) | inconclusive: 96.7%
58 | Cc1cc(C(F)(F)F)n(-c2nc(C(=O)NNS(=O)(=O)c3ccccc3[N+](=O)[O-])cs2)n1 | inactive: 95.5%
